Assay results taken from PMC8228365, “Degradation Products of Tryptophan in Cell Culture Media: Contribution to Color and Toxicity” (International Journal of Molecular Sciences, 2021).

Assay: Ammonia production in feed with a-ketoglutaric acid during 98-day storage
Format: physicochemical
Conditions: 98 days, vs feed without aKG

O=C(O)CCC(=O)C(=O)O [aKG, a-Ketoglutaric acid]
decrease in ammonia (feed stored at 37 °C): 72%
decrease in ammonia (feed stored at RT): 68%
